Results taken from US20250095772A1, “METHOD FOR IMPROVING THROUGHPUT OF COMPOUND-PROTEIN INTERACTION EXPERIMENTS” (SOUTHERN UNIVERSITY OF SCIENCE AND TECHNOLOGY, priority 2022, published 2025).

Tested on: K562 cell lysate
Test: Single temperature point TPP target identification, 25 drugs pooled into 14 mixture systems (Example 2)
Format: binding
Conditions: 25 compounds in 14 mixture systems (each in 4), remaining steps as Example 1 (40 μM, K562 cell lysate, 52° C., LASSO β threshold 0.1); — = no target identified
Method: In step S04: DMSO as a solvent was added to each mixture system in step S03 to enable a concentration of each drug to reach 40 μM, and then the single temperature point TPP method is applied to measure the interaction between each mixture system and the protein. The specific experimental steps are that: equal amounts of K562 cell lysate were mixed with a drug mixture system, incubated at room temperature for 10 minutes, then heated at 52° C. for 3 minutes, and then quickly cooled to 4° C. on a PCR machine. The samples were centrifuged at 21,000 rcf for 20 minutes at 4° C., and the supernatant was collected. According to the mass spectrometry-based proteomics quantification method, each sample was enzymatically digested and TMT labeled, and then the LC-MS mass spectrometry was used for measurement to obtain the content of protein. Based on the principle of the TPP method, the thermal stability of the protein can be improved through a combination with compounds. Therefore, if a protein can interact with the mixed system, then the content of protein measured by mass spectrometry will be higher, and vice versa.
In step S05: Nine measured values Yi obtained from the interaction between the nine mixture systems and the target protein are marked as response vectors Y; the response vectors Y were normalized so that the numerical values of the response vectors are between 0 and 1. […]

With `Cc1ccc(C(=O)NCCCCCC(=O)Nc2ccccc2N)cc1` [RG2833] the “Successfully Identified Target(s)” value was “HDAC1”.
